# Measurements as given in the supplement of paper PMC8728848.
# The list shows a part of the results.
# B1: Layilin (Mus musculus), Q8C351 (protein)
# chain: MQPGAALQAMLLAVLLAKPRDSKGRLLSASDLDPRGGQLVCRGGTRRPCYKVIYFHDAFQRLNFEEAKETCMEDGGQLVSIETEDEQRLIEKFIENLLASDGDFWIGLKRLEEKQSNNTACQDLYAWTDGSTSQFRNWYVDEPSCGSEVCVVMYHQPSAPPGIGGSYMFQWNDDRCNMKNNFICKYHDDKPSTTPSIWPGGEATEPATPLLPEETQKEDTKETFKERREAALNLAYILIPSIPLFLLLVVTSAVCWVWICRRKREQTDPSTKEQHTIWPTPRQENSPNLDVYNVIRKQSEADLAEPRPDLKNISFRVCSGEAMPDDMSCDYENIAVNPSESGFVTLASMESGFVTNDIYEFSPDRMGRSKESGWVENEIYY
# What was measured:
# Experiment in all cases: glycan array binding signal (z-score within array); higher = stronger binding
# Settings in all cases: glycan notation: IUPAC condensed, linker removed
# [1] = target: Fuc(a1-2)Gal(b1-4)[Fuc(a1-3)]GlcNAc
# Method in brief: (§1)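 Glycan array binding is given as a within-array Z-score, which can be read as non-binding when negative. The arrays, 3228 of them, came from the Consortium for Functional Glycomics database and were retained only where the protein sequence was available. Z-scores were averaged across arrays of the same protein sequence at different concentrations or buffers and across linkers.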
# [2] = target: Fuc(a1-2)Gal(b1-4)[Fuc(a1-3)]GlcNAc(b1-2)Man(a1-3)[Fuc(a1-2)Gal(b1-4)[Fuc(a1-3)]GlcNAc(b1-2)Man(a1-6)]Man(b1-4)GlcNAc(b1-4)GlcNAc
# Method in brief: as §1
# [3] = target: Fuc(a1-2)Gal(b1-4)[Fuc(a1-3)]GlcNAc(b1-2)[Fuc(a1-2)Gal(b1-4)[Fuc(a1-3)]GlcNAc(b1-4)]Man(a1-3)[Fuc(a1-2)Gal(b1-4)[Fuc(a1-3)]GlcNAc(b1-2)Man(a1-6)]Man(b1-4)GlcNAc(b1-4)GlcNAc
# Method in brief: as §1
# [4] = target: Fuc(a1-2)Gal(b1-4)[Fuc(a1-3)]GlcNAc(b1-3)Gal(b1-4)[Fuc(a1-3)]GlcNAc
# Method in brief: as §1
# [5] = target: Fuc(a1-2)Gal(b1-4)[Fuc(a1-3)]GlcNAc(b1-3)Gal(b1-4)[Fuc(a1-3)]GlcNAc(b1-3)Gal(b1-4)[Fuc(a1-3)]GlcNAc
# Method in brief: as §1
# [6] = target: Fuc(a1-2)Gal(b1-4)[Fuc(a1-3)]GlcNAc(b1-3)GalNAc
# Method in brief: as §1
# Fuc(a1-2)Gal6S(b1-4)Glc = target: Fuc(a1-2)Gal6S(b1-4)Glc
# Method in brief: as §1
# [7] = target: Fuc(a1-2)Gal6S(b1-4)Glc6S
# Method in brief: as §1
# [8] = target: Fuc(a1-2)Gal6S(b1-4)GlcNAc
# Method in brief: as §1
# Fuc(a1-2)[Gal(a1-3)]Gal = target: Fuc(a1-2)[Gal(a1-3)]Gal
# Method in brief: as §1
# [9] = target: Fuc(a1-2)[Gal(a1-3)]Gal(b1-3)GalNAc
# Method in brief: as §1
# [10] = target: Fuc(a1-2)[Gal(a1-3)]Gal(b1-3)GlcNAc
# Method in brief: as §1
# [11] = target: Fuc(a1-2)[Gal(a1-3)]Gal(b1-3)GlcNAc(b1-2)Man(a1-3)[Fuc(a1-2)[Gal(a1-3)]Gal(b1-3)GlcNAc(b1-2)Man(a1-6)]Man(b1-4)GlcNAc(b1-4)GlcNAc
# Method in brief: as §1
# [12] = target: Fuc(a1-2)[Gal(a1-3)]Gal(b1-3)GlcNAc(b1-2)Man(a1-3)[Fuc(a1-2)[Gal(a1-3)]Gal(b1-3)GlcNAc(b1-2)Man(a1-6)]Man(b1-4)GlcNAc(b1-4)[Fuc(a1-6)]GlcNAc
# Method in brief: as §1
# [13] = target: Fuc(a1-2)[Gal(a1-3)]Gal(b1-3)GlcNAc(b1-3)GalNAc
# Method in brief: as §1
# [14] = target: Fuc(a1-2)[Gal(a1-3)]Gal(b1-4)Glc
# Method in brief: as §1
# [15] = target: Fuc(a1-2)[Gal(a1-3)]Gal(b1-4)GlcNAc
# Method in brief: as §1
# [16] = target: Fuc(a1-2)[Gal(a1-3)]Gal(b1-4)GlcNAc(b1-2)Man(a1-3)[Fuc(a1-2)[Gal(a1-3)]Gal(b1-4)GlcNAc(b1-2)Man(a1-6)]Man(b1-4)GlcNAc(b1-4)GlcNAc
# Method in brief: as §1
# [17] = target: Fuc(a1-2)[Gal(a1-3)]Gal(b1-4)GlcNAc(b1-2)Man(a1-3)[Fuc(a1-2)[Gal(a1-3)]Gal(b1-4)GlcNAc(b1-2)Man(a1-6)]Man(b1-4)GlcNAc(b1-4)[Fuc(a1-6)]GlcNAc
# Method in brief: as §1
# [18] = target: Fuc(a1-2)[Gal(a1-3)]Gal(b1-4)GlcNAc(b1-3)GalNAc
# Method in brief: as §1
# [19] = target: Fuc(a1-2)[Gal(a1-3)]Gal(b1-4)[Fuc(a1-3)]Glc
# Method in brief: as §1
# [20] = target: Fuc(a1-2)[Gal(a1-3)]Gal(b1-4)[Fuc(a1-3)]GlcNAc
# Method in brief: as §1
# [21] = target: Fuc(a1-2)[Gal(a1-3)]Gal(b1-4)[Fuc(a1-3)]GlcNAc(b1-3)GalNAc
# Method in brief: as §1
# [22] = target: Fuc(a1-2)[Gal(a1-4)]Gal(b1-4)GlcNAc
# Method in brief: as §1
# [23] = target: Fuc(a1-2)[GalNAc(a1-3)]Gal
# Method in brief: as §1
# [24] = target: Fuc(a1-2)[GalNAc(a1-3)]Gal(b1-3)GalNAc(a1-3)[Fuc(a1-2)]Gal(b1-4)GlcNAc
# Method in brief: as §1
# [25] = target: Fuc(a1-2)[GalNAc(a1-3)]Gal(b1-3)GlcNAc
# Method in brief: as §1
# [26] = target: Fuc(a1-2)[GalNAc(a1-3)]Gal(b1-3)GlcNAc(b1-2)Man(a1-3)[Fuc(a1-2)[GalNAc(a1-3)]Gal(b1-3)GlcNAc(b1-2)Man(a1-6)]Man(b1-4)GlcNAc(b1-4)GlcNAc
# Method in brief: as §1
# [27] = target: Fuc(a1-2)[GalNAc(a1-3)]Gal(b1-3)GlcNAc(b1-2)Man(a1-3)[Fuc(a1-2)[GalNAc(a1-3)]Gal(b1-3)GlcNAc(b1-2)Man(a1-6)]Man(b1-4)GlcNAc(b1-4)[Fuc(a1-6)]GlcNAc
# Method in brief: as §1
# [28] = target: Fuc(a1-2)[GalNAc(a1-3)]Gal(b1-3)GlcNAc(b1-3)GalNAc
# Method in brief: as §1
# [29] = target: Fuc(a1-2)[GalNAc(a1-3)]Gal(b1-4)Glc
# Method in brief: as §1
# [30] = target: Fuc(a1-2)[GalNAc(a1-3)]Gal(b1-4)GlcNAc
# Method in brief: as §1
# [31] = target: Fuc(a1-2)[GalNAc(a1-3)]Gal(b1-4)GlcNAc(b1-2)Man(a1-3)[Fuc(a1-2)[GalNAc(a1-3)]Gal(b1-4)GlcNAc(b1-2)Man(a1-6)]Man(b1-4)GlcNAc(b1-4)GlcNAc
# Method in brief: as §1
# [32] = target: Fuc(a1-2)[GalNAc(a1-3)]Gal(b1-4)GlcNAc(b1-2)Man(a1-3)[Fuc(a1-2)[GalNAc(a1-3)]Gal(b1-4)GlcNAc(b1-2)Man(a1-6)]Man(b1-4)GlcNAc(b1-4)[Fuc(a1-6)]GlcNAc
# Method in brief: as §1
# [33] = target: Fuc(a1-2)[GalNAc(a1-3)]Gal(b1-4)GlcNAc(b1-3)Gal(b1-4)GlcNAc
# Method in brief: as §1
# [34] = target: Fuc(a1-2)[GalNAc(a1-3)]Gal(b1-4)GlcNAc(b1-3)Gal(b1-4)GlcNAc(b1-3)Gal(b1-4)GlcNAc
# Method in brief: as §1
# [35] = target: Fuc(a1-2)[GalNAc(a1-3)]Gal(b1-4)GlcNAc(b1-3)GalNAc
# Method in brief: as §1
binder,measurement,setting,value
B1,glycan array binding signal (z-score),[1],-0.045
same,glycan array binding signal (z-score),[2],2.69
same,glycan array binding signal (z-score),[3],2.52
same,glycan array binding signal (z-score),[4],-0.228
same,glycan array binding signal (z-score),[5],-0.201
same,glycan array binding signal (z-score),[6],4.74
same,glycan array binding signal (z-score),Fuc(a1-2)Gal6S(b1-4)Glc,-0.77
same,glycan array binding signal (z-score),[7],0.095
same,glycan array binding signal (z-score),[8],0.187
same,glycan array binding signal (z-score),Fuc(a1-2)[Gal(a1-3)]Gal,1.35
same,glycan array binding signal (z-score),[9],0.28
same,glycan array binding signal (z-score),[10],2.33
same,glycan array binding signal (z-score),[11],1.05
same,glycan array binding signal (z-score),[12],-0.347
same,glycan array binding signal (z-score),[13],-0.382
same,glycan array binding signal (z-score),[14],-0.634
same,glycan array binding signal (z-score),[15],0.143
same,glycan array binding signal (z-score),[16],0.449
same,glycan array binding signal (z-score),[17],-0.28
same,glycan array binding signal (z-score),[18],-0.073
same,glycan array binding signal (z-score),[19],-0.648
same,glycan array binding signal (z-score),[20],1.88
same,glycan array binding signal (z-score),[21],2.54
same,glycan array binding signal (z-score),[22],-0.606
same,glycan array binding signal (z-score),[23],-0.501
same,glycan array binding signal (z-score),[24],0.394
same,glycan array binding signal (z-score),[25],-0.196
same,glycan array binding signal (z-score),[26],0.941
same,glycan array binding signal (z-score),[27],-0.021
same,glycan array binding signal (z-score),[28],1.54
same,glycan array binding signal (z-score),[29],-0.577
same,glycan array binding signal (z-score),[30],0.73
same,glycan array binding signal (z-score),[31],0.056
same,glycan array binding signal (z-score),[32],-0.512
same,glycan array binding signal (z-score),[33],-1.24
same,glycan array binding signal (z-score),[34],0.481
same,glycan array binding signal (z-score),[35],1.35

# For reference, some entries already given:
binder,measurement,setting,value
B1,glycan array binding signal (z-score),[29],-0.577
same,glycan array binding signal (z-score),[30],0.73
